Measurements as given in the supplement of paper PMC11732987, “Enantioselective OTUD7B fragment discovery through chemoproteomics screening and high-throughput optimisation” (Communications Chemistry, 2025).
This is one part of the list. The data scatter; read single values as rough.

Amino acid sequences for entries named in this document (tags omitted). A change or cut given only in a name is not applied to a line headed by its entry. Residues count along the entry.
UniProt Q9BXW6, whole entry, looked up: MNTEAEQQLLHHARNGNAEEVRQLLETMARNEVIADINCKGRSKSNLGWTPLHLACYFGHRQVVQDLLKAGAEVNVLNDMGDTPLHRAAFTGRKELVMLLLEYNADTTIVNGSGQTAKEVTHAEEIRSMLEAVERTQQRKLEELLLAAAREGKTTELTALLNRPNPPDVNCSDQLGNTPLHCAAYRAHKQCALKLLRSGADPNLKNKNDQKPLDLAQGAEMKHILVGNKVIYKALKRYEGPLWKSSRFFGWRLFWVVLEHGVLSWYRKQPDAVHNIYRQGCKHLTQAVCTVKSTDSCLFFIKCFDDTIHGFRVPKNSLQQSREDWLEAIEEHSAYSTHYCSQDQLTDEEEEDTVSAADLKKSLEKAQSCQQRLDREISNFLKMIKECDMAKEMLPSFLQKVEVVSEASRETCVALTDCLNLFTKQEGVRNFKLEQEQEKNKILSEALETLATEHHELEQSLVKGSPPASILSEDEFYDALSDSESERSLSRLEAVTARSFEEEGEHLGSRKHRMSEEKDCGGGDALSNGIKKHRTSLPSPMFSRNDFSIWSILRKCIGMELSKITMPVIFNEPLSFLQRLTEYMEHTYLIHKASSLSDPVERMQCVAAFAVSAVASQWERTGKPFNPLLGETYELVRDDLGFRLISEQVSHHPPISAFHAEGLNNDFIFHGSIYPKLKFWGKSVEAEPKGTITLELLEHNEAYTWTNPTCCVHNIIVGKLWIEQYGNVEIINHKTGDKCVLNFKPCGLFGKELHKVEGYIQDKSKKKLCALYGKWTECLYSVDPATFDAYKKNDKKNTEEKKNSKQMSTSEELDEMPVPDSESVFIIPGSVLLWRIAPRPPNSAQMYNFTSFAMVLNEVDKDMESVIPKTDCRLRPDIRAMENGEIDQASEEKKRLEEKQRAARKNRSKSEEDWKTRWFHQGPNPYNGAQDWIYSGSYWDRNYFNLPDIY
UniProt Q9Y5N6: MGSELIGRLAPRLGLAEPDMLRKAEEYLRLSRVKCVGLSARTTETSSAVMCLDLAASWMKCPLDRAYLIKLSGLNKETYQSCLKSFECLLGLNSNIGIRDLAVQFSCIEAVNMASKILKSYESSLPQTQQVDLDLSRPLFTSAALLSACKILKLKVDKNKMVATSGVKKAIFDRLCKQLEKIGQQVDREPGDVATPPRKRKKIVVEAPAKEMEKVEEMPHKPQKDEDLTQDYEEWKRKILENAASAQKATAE
UniProt Q8N1F7, 505-524: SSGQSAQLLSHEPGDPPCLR
UniProt Q9Y530: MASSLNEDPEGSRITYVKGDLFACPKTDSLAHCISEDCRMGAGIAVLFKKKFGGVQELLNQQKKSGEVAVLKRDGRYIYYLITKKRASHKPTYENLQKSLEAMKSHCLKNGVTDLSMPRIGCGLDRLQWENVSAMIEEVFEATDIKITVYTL
UniProt Q08J23, whole entry, looked up: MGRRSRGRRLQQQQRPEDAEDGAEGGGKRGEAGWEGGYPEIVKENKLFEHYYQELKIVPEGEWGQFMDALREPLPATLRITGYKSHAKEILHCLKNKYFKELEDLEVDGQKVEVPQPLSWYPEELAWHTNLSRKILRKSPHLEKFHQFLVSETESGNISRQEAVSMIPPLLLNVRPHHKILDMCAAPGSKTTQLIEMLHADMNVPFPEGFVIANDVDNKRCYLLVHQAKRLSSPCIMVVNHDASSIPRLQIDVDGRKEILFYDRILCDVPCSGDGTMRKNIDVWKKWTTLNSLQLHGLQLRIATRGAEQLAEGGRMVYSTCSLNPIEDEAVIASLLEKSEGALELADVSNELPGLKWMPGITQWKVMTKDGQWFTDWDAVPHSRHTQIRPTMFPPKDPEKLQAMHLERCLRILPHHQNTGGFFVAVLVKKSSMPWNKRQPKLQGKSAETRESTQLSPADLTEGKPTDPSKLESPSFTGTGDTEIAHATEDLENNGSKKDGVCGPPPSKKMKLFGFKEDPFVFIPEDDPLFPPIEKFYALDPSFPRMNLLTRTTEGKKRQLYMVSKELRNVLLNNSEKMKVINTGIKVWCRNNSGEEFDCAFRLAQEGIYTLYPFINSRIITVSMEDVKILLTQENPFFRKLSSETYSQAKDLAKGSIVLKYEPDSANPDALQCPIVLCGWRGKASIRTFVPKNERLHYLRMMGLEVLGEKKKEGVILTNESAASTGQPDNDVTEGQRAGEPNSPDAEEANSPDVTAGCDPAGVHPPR
UniProt Q12769: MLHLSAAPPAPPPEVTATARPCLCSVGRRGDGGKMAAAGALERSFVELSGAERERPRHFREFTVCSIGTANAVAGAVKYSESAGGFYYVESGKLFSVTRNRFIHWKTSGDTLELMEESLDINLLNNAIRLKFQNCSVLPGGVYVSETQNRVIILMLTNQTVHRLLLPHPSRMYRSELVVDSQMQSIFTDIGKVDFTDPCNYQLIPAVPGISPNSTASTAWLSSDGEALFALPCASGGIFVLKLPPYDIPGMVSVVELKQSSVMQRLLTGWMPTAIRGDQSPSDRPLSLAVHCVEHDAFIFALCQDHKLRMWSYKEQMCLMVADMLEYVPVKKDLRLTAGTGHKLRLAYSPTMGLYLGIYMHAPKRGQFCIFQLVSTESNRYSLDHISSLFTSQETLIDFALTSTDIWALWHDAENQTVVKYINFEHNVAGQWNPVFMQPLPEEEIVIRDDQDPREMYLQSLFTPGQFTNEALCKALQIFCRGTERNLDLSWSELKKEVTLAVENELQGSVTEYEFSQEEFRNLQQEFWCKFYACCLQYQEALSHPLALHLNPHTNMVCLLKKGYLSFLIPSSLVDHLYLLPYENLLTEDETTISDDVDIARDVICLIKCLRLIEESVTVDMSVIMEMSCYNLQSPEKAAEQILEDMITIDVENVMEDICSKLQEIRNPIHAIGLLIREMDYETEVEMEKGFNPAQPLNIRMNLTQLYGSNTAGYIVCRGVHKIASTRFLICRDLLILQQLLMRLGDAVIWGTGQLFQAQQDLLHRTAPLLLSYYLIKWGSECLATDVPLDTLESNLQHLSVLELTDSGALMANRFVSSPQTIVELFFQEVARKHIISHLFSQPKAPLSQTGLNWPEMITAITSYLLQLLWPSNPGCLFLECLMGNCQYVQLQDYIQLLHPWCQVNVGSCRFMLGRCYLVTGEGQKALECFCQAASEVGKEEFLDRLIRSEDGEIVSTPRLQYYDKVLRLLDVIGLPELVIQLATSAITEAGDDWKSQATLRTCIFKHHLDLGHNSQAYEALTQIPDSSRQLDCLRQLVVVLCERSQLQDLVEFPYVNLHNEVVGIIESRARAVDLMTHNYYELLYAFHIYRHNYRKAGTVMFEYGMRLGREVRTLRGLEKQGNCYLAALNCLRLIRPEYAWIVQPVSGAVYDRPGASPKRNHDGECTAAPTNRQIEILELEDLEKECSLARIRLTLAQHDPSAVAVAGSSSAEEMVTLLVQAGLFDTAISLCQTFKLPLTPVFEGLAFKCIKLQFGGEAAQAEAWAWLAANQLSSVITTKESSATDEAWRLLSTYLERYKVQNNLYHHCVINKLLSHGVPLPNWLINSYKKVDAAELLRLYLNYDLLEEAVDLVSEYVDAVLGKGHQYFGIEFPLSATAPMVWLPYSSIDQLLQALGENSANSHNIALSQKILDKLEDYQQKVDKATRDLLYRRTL
UniProt O60502: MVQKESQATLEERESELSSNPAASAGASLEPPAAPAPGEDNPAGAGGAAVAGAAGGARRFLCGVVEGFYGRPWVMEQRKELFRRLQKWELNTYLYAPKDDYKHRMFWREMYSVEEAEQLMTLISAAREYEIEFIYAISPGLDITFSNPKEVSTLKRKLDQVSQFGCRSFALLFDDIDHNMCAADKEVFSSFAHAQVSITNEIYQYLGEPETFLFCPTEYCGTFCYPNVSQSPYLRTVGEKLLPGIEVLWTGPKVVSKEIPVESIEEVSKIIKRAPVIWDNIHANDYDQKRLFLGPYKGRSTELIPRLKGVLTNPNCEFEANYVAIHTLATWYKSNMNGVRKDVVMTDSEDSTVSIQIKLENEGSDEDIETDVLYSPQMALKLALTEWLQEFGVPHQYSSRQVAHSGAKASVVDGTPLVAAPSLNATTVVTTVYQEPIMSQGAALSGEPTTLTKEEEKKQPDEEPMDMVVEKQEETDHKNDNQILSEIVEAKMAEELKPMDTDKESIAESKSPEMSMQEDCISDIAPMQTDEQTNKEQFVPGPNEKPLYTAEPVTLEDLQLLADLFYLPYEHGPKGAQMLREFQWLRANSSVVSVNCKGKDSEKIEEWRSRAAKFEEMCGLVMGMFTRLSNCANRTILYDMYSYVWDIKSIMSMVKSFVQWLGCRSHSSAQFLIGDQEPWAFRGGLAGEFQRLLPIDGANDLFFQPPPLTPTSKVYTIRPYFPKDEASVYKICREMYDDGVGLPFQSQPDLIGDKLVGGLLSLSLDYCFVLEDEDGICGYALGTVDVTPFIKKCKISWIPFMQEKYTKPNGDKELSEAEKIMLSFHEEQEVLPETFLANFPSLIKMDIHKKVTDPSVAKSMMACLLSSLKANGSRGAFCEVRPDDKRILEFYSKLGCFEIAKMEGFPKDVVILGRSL
UniProt P52948: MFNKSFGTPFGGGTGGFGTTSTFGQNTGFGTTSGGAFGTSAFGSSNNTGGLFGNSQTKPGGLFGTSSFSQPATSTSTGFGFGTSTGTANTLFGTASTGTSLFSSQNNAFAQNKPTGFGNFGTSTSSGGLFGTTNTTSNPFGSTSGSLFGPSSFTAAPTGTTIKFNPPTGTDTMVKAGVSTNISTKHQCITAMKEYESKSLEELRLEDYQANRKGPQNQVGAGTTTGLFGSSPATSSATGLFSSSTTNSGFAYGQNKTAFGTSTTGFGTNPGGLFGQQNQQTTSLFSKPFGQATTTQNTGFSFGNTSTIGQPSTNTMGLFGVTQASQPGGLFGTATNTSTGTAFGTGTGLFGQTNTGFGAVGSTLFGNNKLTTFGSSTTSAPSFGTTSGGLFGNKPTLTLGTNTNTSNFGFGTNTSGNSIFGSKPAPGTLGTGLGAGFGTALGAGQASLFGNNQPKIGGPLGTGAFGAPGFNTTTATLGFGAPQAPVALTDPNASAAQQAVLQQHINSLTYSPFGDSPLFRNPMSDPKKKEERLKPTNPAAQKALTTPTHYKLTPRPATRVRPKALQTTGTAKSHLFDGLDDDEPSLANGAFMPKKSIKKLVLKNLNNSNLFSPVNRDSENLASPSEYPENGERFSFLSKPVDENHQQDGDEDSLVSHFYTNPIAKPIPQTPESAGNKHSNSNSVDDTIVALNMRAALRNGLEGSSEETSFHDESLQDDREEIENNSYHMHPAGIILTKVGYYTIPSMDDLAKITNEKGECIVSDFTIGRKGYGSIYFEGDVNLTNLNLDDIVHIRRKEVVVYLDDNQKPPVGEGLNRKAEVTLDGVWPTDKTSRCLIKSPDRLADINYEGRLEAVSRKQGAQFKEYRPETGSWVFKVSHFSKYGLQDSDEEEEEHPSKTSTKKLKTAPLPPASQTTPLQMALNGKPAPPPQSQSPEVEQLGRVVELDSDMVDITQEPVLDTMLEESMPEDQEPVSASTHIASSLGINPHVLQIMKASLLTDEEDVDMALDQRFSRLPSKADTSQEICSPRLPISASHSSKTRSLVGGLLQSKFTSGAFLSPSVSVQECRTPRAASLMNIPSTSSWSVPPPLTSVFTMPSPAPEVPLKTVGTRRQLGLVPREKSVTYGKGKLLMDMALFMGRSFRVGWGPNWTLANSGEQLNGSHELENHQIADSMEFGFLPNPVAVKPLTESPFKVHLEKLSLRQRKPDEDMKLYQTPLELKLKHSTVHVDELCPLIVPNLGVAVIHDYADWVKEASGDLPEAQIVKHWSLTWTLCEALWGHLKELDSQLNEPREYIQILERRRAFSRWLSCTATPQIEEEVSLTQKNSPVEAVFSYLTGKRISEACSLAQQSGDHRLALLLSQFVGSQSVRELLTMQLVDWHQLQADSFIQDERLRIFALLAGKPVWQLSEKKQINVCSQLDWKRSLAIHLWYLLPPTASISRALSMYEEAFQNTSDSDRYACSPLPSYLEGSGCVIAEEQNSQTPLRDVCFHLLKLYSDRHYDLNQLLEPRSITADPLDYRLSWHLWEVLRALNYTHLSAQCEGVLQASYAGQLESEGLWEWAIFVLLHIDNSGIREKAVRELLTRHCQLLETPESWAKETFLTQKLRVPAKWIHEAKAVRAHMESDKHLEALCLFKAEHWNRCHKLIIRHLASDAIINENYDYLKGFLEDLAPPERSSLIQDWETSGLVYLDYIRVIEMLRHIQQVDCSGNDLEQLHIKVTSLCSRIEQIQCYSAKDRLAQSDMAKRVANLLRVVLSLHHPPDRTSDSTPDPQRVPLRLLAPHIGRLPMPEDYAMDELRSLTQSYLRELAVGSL
UniProt Q9Y5Y2: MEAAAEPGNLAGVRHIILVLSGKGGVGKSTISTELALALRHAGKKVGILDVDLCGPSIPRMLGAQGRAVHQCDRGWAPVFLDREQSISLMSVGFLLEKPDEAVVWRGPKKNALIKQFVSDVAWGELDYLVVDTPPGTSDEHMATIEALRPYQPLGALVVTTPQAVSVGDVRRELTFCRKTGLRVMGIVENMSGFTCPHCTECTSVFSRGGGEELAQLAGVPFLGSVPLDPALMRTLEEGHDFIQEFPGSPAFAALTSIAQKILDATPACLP

Each target was assayed with ClCC(=O)N[C@H]1CCCc2ccccc12 (assay: log2 mean competition ratio of IA-DTB cysteine labelling (DMSO/compound) (log2 ratio); higher = stronger cysteine engagement by compound). Details: 50 µM; treatment time: 4 h; cell line lysate: HEK293T.
Method: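 IA-DTB competitive cysteine chemoproteomics in HEK293T RIPA lysate. Lysates were treated with compound 29 or 30 at 50 or 200 µM for 4 h, then IA-DTB (500 µM, 1 h), trypsin-digested, NeutrAvidin-enriched and analysed by diaPASEF. Competition ratio = intensity DMSO / intensity compound (n=4 treated, n=64 DMSO); binding: mean log2 CR ≥ 1 and p ≤ 0.05 plus QC filters. Target is the cysteine site.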

Target | log2 mean competition ratio
OSBPL1A C297 (UniProt Q9BXW6) | -0.366
OSBPL10 C511 (UniProt Q9BXB5) | -0.109
ORC6 C82 (UniProt Q9Y5N6) | -0.0838
OCIAD1 C38 | 0.16
ODAD2 C125 | -0.302
OSGEPL1 C216 (UniProt Q9H4B0) | -0.0419
NYNRIN C1031 | -0.0717
NUP93 C522 (UniProt Q8N1F7) | -0.283
NUMB C58 (UniProt P49757) | -0.0916
OARD1 C24 (UniProt Q9Y530) | 0.452
ODAD2 C553 | -0.563
NSUN2 C502 (UniProt Q08J23) | -0.22
NRDC C674 (UniProt O43847) | 0.0797
OBSL1 C412 (UniProt O75147) | -0.502
NUP160 C1166 (UniProt Q12769) | -0.0252
NUDT18 C24 (UniProt Q6ZVK8) | -0.291
OSBPL6 C803 (UniProt Q9BZF3) | 0.0183
NT5C3B C210 (UniProt Q969T7) | -0.0331
OCRL C498 (UniProt Q01968) | -0.139

Target | log2 mean competition ratio
NRDE2 C608 (UniProt Q9H7Z3) | -0.172
NOTCH3 C1747 (UniProt Q9UM47) | -0.402
ORC4 C16 (UniProt O43929) | -0.00315
NPAT C1172 (UniProt Q14207) | -0.296
NUDT9 C207 (UniProt Q9BW91) | 0.445
NPRL3 C278 (UniProt Q12980) | 0.164
OGFOD1 C435 (UniProt Q8N543) | 0.0949
NUP85 C265 (UniProt Q9BW27) | -0.109
OGA C596 (UniProt O60502) | 0.0951
NUP98 C1068 (UniProt P52948) | 0.234
NUP160 C1042 (UniProt Q12769) | 0.235
NUP205 C1028 (UniProt Q92621) | -0.114
ORC6 C35 (UniProt Q9Y5N6) | 0.285
NUBP1 C307 (UniProt P53384) | -0.112
NUP88 C391 (UniProt Q99567) | 0.498
NUTF2 C114 (UniProt P61970) | -0.132
NUBP2 C72 (UniProt Q9Y5Y2) | 0.211
OARD1 C122 (UniProt Q9Y530) | -0.269

Same assay, conditions: 200 µM; treatment time: 4 h; cell line lysate: HEK293T

Target | log2 mean competition ratio
OSBPL1A C297 (UniProt Q9BXW6) | 0.248
OSBPL10 C511 (UniProt Q9BXB5) | -0.296
ORC6 C82 (UniProt Q9Y5N6) | -0.172
OCIAD1 C38 | -0.0446
ODAD2 C125 | -0.232
OSGEPL1 C216 (UniProt Q9H4B0) | 0.328
NYNRIN C1031 | -0.204
NUP93 C522 (UniProt Q8N1F7) | 0.21
NUMB C58 (UniProt P49757) | 0.218
OARD1 C24 (UniProt Q9Y530) | -0.0851
ODAD2 C553 | 0.114
NSUN2 C502 (UniProt Q08J23) | 0.215
NRDC C674 (UniProt O43847) | -0.128
OBSL1 C412 (UniProt O75147) | 0.101
NUP160 C1166 (UniProt Q12769) | 0.0664
NUDT18 C24 (UniProt Q6ZVK8) | -0.443
OSBPL6 C803 (UniProt Q9BZF3) | -0.166
NT5C3B C210 (UniProt Q969T7) | 0.0225
OCRL C498 (UniProt Q01968) | 0.0725

Target | log2 mean competition ratio
NRDE2 C608 (UniProt Q9H7Z3) | -0.135
NOTCH3 C1747 (UniProt Q9UM47) | 0.169
ORC4 C16 (UniProt O43929) | 0.0977
NPAT C1172 (UniProt Q14207) | -0.0373
NUDT9 C207 (UniProt Q9BW91) | 0.0503
NPRL3 C278 (UniProt Q12980) | 0.0712
OGFOD1 C435 (UniProt Q8N543) | -0.144
NUP85 C265 (UniProt Q9BW27) | -0.226
OGA C596 (UniProt O60502) | 0.0326
NUP98 C1068 (UniProt P52948) | 0.131
NUP160 C1042 (UniProt Q12769) | 0.112
NUP205 C1028 (UniProt Q92621) | 0.151
ORC6 C35 (UniProt Q9Y5N6) | 0.182
NUBP1 C307 (UniProt P53384) | 0.424
NUP88 C391 (UniProt Q99567) | -0.45
NUTF2 C114 (UniProt P61970) | -0.135
NUBP2 C72 (UniProt Q9Y5Y2) | 0.157
OARD1 C122 (UniProt Q9Y530) | 0.166
